Protein sequences can lack the tags named with them.
Assays:
[1] = test system: T1, M.DraR1 N4-cytosine DNA methyltransferase (Deinococcus radiodurans R1); assay: activity assay; details: in vitro methylation protects from SacII; 1 uM protein, 50-200 mM KCl, Tris-HCl pH 7.5-8.0, 20-100 uM SAM; optimum 25-37 C, weak at 4 C and 45-55 C; purified recombinant protein; only the site is given
T1 sequence (limits assumed): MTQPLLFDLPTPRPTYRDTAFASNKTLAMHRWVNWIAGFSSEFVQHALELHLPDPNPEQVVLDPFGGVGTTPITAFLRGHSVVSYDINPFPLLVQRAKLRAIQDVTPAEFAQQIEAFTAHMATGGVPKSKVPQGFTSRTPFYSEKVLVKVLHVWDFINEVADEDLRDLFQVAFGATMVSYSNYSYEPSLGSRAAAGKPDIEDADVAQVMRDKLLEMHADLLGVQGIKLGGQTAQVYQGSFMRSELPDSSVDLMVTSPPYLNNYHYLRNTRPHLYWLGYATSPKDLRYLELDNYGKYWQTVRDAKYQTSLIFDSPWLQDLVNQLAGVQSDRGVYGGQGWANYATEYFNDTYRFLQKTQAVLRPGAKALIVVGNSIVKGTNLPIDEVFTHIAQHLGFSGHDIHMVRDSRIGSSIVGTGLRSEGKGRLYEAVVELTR

[2] = test system: T1, M.DraR1 N4-cytosine DNA methyltransferase (Deinococcus radiodurans R1); assay: activity in cells; details: plasmid from E. coli ER2796 resistant to SacII; unmethylated PCR product is digested; protein in cells; only the site is given

Sequence: CCGCGG (double strand) [CCGCGG motif in HindIII-linearized pRRS-M.DraR1 plasmid]
- activity on this sequence [1]: active

Sequence: CCGCGG (double strand) [CCGCGG motif in pRRS-M.DraR1 plasmid in E. coli ER2796]
- activity on this sequence [2]: active

Source: patent publication US20230183662
